Percent effect of library compounds

By UniProt entry, the sequences of proteins in these tests, tags left out. Residues count along the entry.
UniProt P9WNZ1, whole entry: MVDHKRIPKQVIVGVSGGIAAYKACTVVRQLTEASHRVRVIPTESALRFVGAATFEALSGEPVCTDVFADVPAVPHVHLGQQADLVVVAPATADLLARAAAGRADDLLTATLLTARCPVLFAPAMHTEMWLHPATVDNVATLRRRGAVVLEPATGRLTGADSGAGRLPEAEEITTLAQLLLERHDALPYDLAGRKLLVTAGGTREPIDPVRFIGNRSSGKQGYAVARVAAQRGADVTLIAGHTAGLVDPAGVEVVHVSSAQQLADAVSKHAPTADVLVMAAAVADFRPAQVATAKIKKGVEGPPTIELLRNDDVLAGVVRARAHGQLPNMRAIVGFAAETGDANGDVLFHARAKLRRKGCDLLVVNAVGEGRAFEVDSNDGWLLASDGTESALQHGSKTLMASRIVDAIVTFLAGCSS
UniProt A4I591, 1-473: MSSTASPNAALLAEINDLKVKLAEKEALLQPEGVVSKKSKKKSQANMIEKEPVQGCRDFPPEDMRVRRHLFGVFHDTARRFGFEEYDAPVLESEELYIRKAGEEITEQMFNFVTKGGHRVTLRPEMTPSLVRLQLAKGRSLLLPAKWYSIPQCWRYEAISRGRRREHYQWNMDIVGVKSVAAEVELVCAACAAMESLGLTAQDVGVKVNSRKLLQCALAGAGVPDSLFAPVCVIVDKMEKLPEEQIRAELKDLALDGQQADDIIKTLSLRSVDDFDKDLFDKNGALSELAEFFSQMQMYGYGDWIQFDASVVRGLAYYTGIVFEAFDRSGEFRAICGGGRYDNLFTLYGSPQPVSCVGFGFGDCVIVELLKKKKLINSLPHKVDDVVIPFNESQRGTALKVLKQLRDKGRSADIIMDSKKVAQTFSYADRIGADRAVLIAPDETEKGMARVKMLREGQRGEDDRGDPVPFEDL

CoaBC: 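Enzyme assay of CoaBC with a phosphate dye (Biomol Green) read at 650 nm. Target: Coenzyme A biosynthesis protein CoaBC, Mycobacterium tuberculosis (UniProt P9WNZ1). Compounds at 30 µM. Higher reads as stronger inhibition, judged from the few compounds that gave an IC50. Most strong results did not repeat in a second test. About 67,000 compounds were tested under these conditions; 0.06% (about 40) showed 50% or more at least once.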
LiHisRS: 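Enzyme assay of histidyl-tRNA synthetase; the read-out is not stated. Target: Histidine-tRNA ligase, Leishmania infantum (UniProt A4I591). Tested at 30 µM. Direction is inferred from retests: higher values go with stronger inhibition. The assay is labelled LdHisRS but filed under L. infantum. Size under these conditions: about 69,000 compounds, about 410 of them at 50% or above in at least one test.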
Leishmania in macrophages: 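Cell assay of Leishmania donovani living inside macrophages; the read-out is not stated. Concentration: 30 µM. Higher reads as stronger inhibition (inferred: compounds with an IC50 in retests scored well above the rest). Of about 69,000 compounds tested this way, about 1,000 (1.5%) reached 50% or more in at least one test.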

Values are the deposited “Percent Effect”, in %. The controls that fix the scale are not given in the record; negative values are as filed. This is an unselected part of the compounds tested. Two or more numbers in one place are separate tests of the same structure; such repeats can differ widely. A dash means the value is not listed here; it may have been measured.

compound,CoaBC,LiHisRS,Leishmania in macrophages
CC1=N[C@@]2(CC[C@@H]3CN(C(=O)NCc4ccccc4C)C[C@@H]32)C(=O)N1,0.6085,15.6,-
CCc1nc(C(=O)N2CCN(CC)CC2)nn1-c1ccccc1Cl,1.956,14.91,-17.22
CCc1cc(N[C@H](C(N)=O)[C@@H](C)CC)n2nccc2n1,-4.092,18.03,34.81
COCC(=O)Nc1ccc(-c2noc([C@@H]3CCCN3C(C)C)n2)cn1,0.6772,11.11,8.026
Cn1cnc2c1CCN(Cc1ccc(Cl)c3cccnc13)C2,-3.571,3.125,-45.37
OC(CN1CCC(c2ccn[nH]2)CC1)c1cc(F)ccc1F (stereo unspecified),16.45,5.357,16.61
CCCS(=O)(=O)N1CCC(NC(=O)c2ccc(Cl)s2)CC1,3.125,16.5,7.538
COCCC1COC2(CCN(C(=O)Cc3ccccc3)CC2)C1 (stereo unspecified),3.25,20,18.72
[H][C@@]12C[C@H](C(=O)NCc3ccccc3)[C@@]([H])(CN(S(=O)(=O)C3CC3)C1)O2,-,-,-9.44
Cc1ccc(NC(=O)CN2CCCNC2=O)c(SC(F)(F)F)c1,-3.586,10.96,12.33
CN1CCCN(C[C@@H]2CN(C(=O)CCC3CCCC3)C[C@@H]2CO)CC1,-44.09,21.7,25.97
COc1ccsc1C(=O)N1CCCC(n2cncn2)C1 (stereo unspecified),3.412,1.695,2.707
CNC(=O)CNC(=O)Nc1ccc(Br)c(F)c1,1.138,2.521,-0.911
COc1cc(N2CCC3(CC2)CN(CCO)c2ccccc23)ncn1,8.606,46.15,1.275
Cc1nnc(N2CCCC3(CN(Cc4ccc(C)s4)CCO3)C2)o1.O=C(O)C(F)(F)F.O=C(O)C(F)(F)F (stereo unspecified),-,-,21.95
CCCNC(=O)CCC(=O)N1CCC(c2noc3cc(F)ccc23)CC1,-0.2165,3.279,11.56
Cc1cc(C(=O)N2CCCC(c3nccn3Cc3cscn3)C2)on1 (stereo unspecified),2.533,16.8,7.716
Cc1cc(C(=O)N2CCCC(c3nccn3Cc3ccncc3)C2)no1 (stereo unspecified),0.6031,16.8,-7.935
Cc1nn2c(-c3cnn(C)c3)nnc2s1,0.1215,13.04,28.58
O=C(O)C(F)(F)F.O=C(O)C(F)(F)F.[H][C@@]12CCCO[C@]1([H])[C@H](OCC)CN2Cc1scnc1C,-,-,19.97
CC(=O)c1c(F)cccc1NCC(O)c1ccc(F)c(F)c1 (stereo unspecified),-1.266,0,-5.838 & 2.577
O=C(C1NCCc2[nH]cnc21)N1CCC2(CC1)CNc1ccccc12 (stereo unspecified),-42.21,22.95,-14.15
[H][C@@]12CCN(S(=O)(=O)Cc3ccccc3)[C@]1([H])CCC(=O)N2C,-,-,-35.87
O=C(O)C(F)(F)F.[H][C@@]12C[C@H](C(=O)N3CCCCO3)CN(Cc3ccccn3)[C@]1([H])CCO2,-,-,24.42
CNC(=O)C1Cc2ccccc2CN1CCc1cccs1 (stereo unspecified),-7.229,19.4,2.344
O=C(O)c1ccnc(-c2ccnc(N3CCC(F)(F)CC3)n2)c1,-4.087,12.5,-2.116
COc1ccc2cccc(CC(=O)NCc3nccc(N)n3)c2c1,-,22.5,11.76
O=C(NCC1Cn2nnc(-c3ccncc3)c2CO1)c1ccsc1 (stereo unspecified),-6.352,-8,-
CSCc1cccc(S(=O)(=O)NCc2cnn(C)c2C)c1,0.8147,5.882,18.22
O=C(NC1CC1)c1ccnc(N2CCOC(c3ccc(Cl)c(Cl)c3)C2)c1 (stereo unspecified),7.198,9.375,-3.599
COCc1ncn2c1CN(C(=O)c1ccc3ccccc3n1)CC2,-3.21,-1.389,-
NC(=O)c1cnc(NC2CCN(c3ccccn3)CC2)c(Cl)c1,-0.9724,14.29,10.92
CCn1c(Cn2ccnc2)nnc1C1CCN(Cc2ccc(C)o2)CC1,-3.426,9.589,0.6397
Cc1ccc(CNC(=O)N2CCN(Cc3ccsc3)CC2)n1C,-0.6519,6.757,31.43
COc1cccc(CCC(=O)N2CCC[C@@H](N)[C@@H]2c2ccccc2F)c1,1.675,2.878,-
c1ccc(OCCNC2CCN(c3ncccn3)CC2)cc1,6.865,26.76,4.504
CN(C)CC1CN(C(=O)Cc2ccccc2)Cc2nccn2C1.O=C(O)C(F)(F)F (stereo unspecified),-,-,38.94
O=C(NCCOc1ccc2c(c1)OCO2)N1CCC1,1.054,9.375,17.74
CN(Cc1ccccc1CN1CCCC1)C(=O)c1c[nH]c(=O)[nH]1,8.46,12.5,18
Cc1cccc(CN2CCCC23CCNC3)n1 (stereo unspecified),0.1287,-3.846,-14.3
c1cc(CN2CC[C@@H]3CN(c4cncnc4)C[C@@H]3C2)ccn1,7.302,17.82,-
O=C1NC(c2ccccc2)=N[C@@]12CC[C@@H]1CN(Cc3ccncc3)C[C@@H]12,4.194,25,-
COCCN1CCC(Nc2ccc(C#N)cc2F)CC1,-1.837,16.33,26.49
CCc1nc(C)c(CN2CCOC(Cc3ccccc3Cl)C2)[nH]1 (stereo unspecified),0.1229,13.95,38.23
CCc1cc(N2CCC(n3cc(C(=O)NCC(C)C)nn3)CC2)ncn1,4.716,19.35,40.64
CC(=O)N1CCCn2nc(CNS(=O)(=O)N3CCCCCC3)cc2C1,1.754,15.24,-3.609
Cc1noc([C@H]2C[C@H]3OCC[C@H]3N(Cc3cccs3)C2)n1,3.807,20.59,-
CCC(=O)N1CCC(n2cc(C(C)(C)O)nn2)CC1,-1.366,14.17,-24.8
COc1ccc2c(c1)OC1(CCN(Cc3ccccc3C)CC1)CC2=O,5.097,0,22.22
Cc1nn(-c2ccccc2)cc1C(=O)N1CCCC(n2ccnc2C)C1 (stereo unspecified),1.305,12.07,33.74
O=C(NC1CC2(CCN(CCO)CC2)c2ccccc21)c1ccno1.O=C(O)C(F)(F)F (stereo unspecified),-,-,15.93
CC(C)CCCC(C)NC(=O)c1ccc(OCC(N)=O)cc1 (stereo unspecified),2.885,23.29,26.5
Cc1nc(CN2CCC3(CC2)NC(=O)CC3c2ccccc2)cs1.O=C(O)C(F)(F)F (stereo unspecified),-,-,48.46
O=C(C1CCN(c2snc3ccccc23)CC1)N1CCCCCC1,11.75,24.32,22.25
O=C(C1CCOCC1)N1CCO[C@H]2[C@H](Oc3ccccn3)CC[C@@H]21,-2.349,-1,-
CC(C)CCN1CCc2[nH]nc(C(=O)N3CC=CC3)c2C1,4.926,14,-

Some entries from above, unchanged:

| compound | CoaBC | LiHisRS | Leishmania in macrophages |
|---|---|---|---|
| `COCCC1COC2(CCN(C(=O)Cc3ccccc3)CC2)C1` (stereo unspecified) | 3.25 | 20 | 18.72 |
| `COc1cccc(CCC(=O)N2CCC[C@@H](N)[C@@H]2c2ccccc2F)c1` | 1.675 | 2.878 | - |
| `CC(=O)c1c(F)cccc1NCC(O)c1ccc(F)c(F)c1` (stereo unspecified) | -1.266 | 0 | -5.838 & 2.577 |
| `O=C(O)C(F)(F)F.O=C(O)C(F)(F)F.[H][C@@]12CCCO[C@]1([H])[C@H](OCC)CN2Cc1scnc1C` | - | - | 19.97 |

The values are deposited in ChEMBL (CHEMBL3988442, “University of Dundee, Small-Polar-MMV Screening Library” (2021)).